Paper PMC10984625
These are yes or no findings as the source states them, for the method shown. Binding seen in cells or lysates may run through a third protein. Some entries that bind do so weakly or less than the wild type. Where a sequence is shown, tags or fusion partners need not be part of it.

Amino acid sequences for entries named in this document (tags omitted). A change or cut given only in a name is not applied to a line headed by its entry. Chains listed by the source or under a name are the forms on record and can include a tag or linker.
UniProt Q61151: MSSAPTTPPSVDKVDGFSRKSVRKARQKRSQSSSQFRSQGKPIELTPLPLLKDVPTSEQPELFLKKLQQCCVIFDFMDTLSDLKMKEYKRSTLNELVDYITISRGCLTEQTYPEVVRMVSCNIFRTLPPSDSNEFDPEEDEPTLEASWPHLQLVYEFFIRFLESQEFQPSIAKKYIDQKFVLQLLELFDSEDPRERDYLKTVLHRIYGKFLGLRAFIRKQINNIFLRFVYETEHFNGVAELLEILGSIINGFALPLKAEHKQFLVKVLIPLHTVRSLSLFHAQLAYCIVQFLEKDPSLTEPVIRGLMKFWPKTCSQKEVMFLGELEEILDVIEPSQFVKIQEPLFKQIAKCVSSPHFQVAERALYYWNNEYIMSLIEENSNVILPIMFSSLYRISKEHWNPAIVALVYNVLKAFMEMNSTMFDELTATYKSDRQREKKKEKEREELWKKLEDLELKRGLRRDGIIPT
UniProt Q6PD03: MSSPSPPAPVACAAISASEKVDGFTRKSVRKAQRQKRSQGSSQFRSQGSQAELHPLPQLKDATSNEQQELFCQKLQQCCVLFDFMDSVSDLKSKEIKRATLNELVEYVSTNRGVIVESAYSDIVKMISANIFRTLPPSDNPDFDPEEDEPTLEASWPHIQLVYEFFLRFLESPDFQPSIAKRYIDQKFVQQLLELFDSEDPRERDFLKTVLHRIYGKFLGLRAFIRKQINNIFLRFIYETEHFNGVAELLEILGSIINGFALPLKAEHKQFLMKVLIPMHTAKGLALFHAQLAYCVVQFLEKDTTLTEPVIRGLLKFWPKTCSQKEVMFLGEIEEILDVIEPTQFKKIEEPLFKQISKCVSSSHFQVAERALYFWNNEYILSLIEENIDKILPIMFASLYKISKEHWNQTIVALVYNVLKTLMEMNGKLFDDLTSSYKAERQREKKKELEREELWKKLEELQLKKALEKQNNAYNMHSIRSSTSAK
dynamin 1 like (DNM1L) (Q8K1M6-6, form named): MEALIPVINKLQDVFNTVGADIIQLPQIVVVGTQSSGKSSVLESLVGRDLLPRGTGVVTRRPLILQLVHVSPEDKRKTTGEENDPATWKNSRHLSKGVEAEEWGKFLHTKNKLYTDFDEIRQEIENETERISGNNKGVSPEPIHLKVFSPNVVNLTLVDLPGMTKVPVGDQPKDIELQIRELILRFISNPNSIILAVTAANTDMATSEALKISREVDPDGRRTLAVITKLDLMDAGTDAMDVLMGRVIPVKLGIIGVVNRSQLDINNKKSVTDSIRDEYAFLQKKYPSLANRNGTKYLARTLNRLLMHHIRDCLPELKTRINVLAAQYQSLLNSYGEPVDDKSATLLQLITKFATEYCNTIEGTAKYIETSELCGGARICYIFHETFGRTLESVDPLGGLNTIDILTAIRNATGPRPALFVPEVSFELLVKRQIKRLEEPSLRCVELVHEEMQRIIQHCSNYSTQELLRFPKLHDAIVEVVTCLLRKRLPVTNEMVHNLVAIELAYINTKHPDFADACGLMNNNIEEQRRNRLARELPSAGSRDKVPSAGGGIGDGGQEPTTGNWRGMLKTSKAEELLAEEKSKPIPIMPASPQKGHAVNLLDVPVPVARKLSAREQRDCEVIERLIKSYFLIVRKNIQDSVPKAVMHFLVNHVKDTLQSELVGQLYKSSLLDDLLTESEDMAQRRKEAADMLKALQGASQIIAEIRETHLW

T1: reticulon 3 (RTN3) (mouse (endogenous in hippocampus of 3xTg-AD mice)) (UniProt Q9ES97)
T1 sequence: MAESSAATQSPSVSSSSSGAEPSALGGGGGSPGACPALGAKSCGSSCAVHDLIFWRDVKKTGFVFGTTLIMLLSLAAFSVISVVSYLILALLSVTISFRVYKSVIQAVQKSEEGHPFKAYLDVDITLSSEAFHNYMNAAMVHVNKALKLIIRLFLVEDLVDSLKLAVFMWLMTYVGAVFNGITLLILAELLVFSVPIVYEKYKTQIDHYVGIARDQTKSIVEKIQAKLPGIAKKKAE

B1: RAS-related protein RAB3B (protein, UniProt Q9CZT8 1-219)
chain: MASVTDGKTGIKDASDQNFDYMFKLLIIGNSSVGKTSFLFRYADDTFTPAFVSTVGIDFKVKTVYRHEKRVKLQIWDTAGQERYRTITTAYYRGAMGFILMYDITNEESFNAVQDWATQIKTYSWDNAQVILVGNKCDMEEERVVPTEKGRLLAEQLGFDFFEASAKENISVRQAFERLVDAICDKMSDSMDTDPSVLGASKTTRLSDTPPLLQQNCSC
B2: solute carrier family 25, member 46 (SLC25A46) (protein, UniProt Q9CQS4 1-418)
chain: MHPRRPEGFDGLGYRGGVRDDPAFGGPFHARSFGSGTELGHWVTTPPDIPGSRNLHWGEKSPSYGVPSAPPTLEGSAEEPFPGGGEGPRPGPSSEQLNRFAGFGIGLASLFTENVLAHPCIVLRRQCQVNYHARHYHLTPFSIINIMYSFNKTQGPRALWKGMGSTFIVQGVTLGAEGIISEFTPLPREVSHKLNPKQIGEHLLLKCLTYMVAMPFYSASLIETVQSEIIRDNTGILECVKEGIGRVIGLGVPHSKRLLPLFSLIFPTVLHGVLHYIISSIIQKIVLLILKRKTYNSHLAESTSPMQNMLDAYFPELIANFAASLCSDVILYPLETVLHRLHIQGTRTIIDNTDLGYEVLPINTQYEGMRDCINTIKQEEGVFGFYKGFGAVIIQYTLHATILQITKMIYSTLLQNSI
B3: synaptogyrin-1 (SYNGR1) (protein, UniProt O55100-1 1-234)
chain: MEGGAYGAGKAGGAFDPYTLVRQPHTILRVVSWVFSIVVFGSIVNEGYLNNPEEEEEFCIYNRNPNACSYGVTVGVLAFLTCLLYLALDVYFPQISSVKDRKKAVLSDIGVSAFWAFFWFVGFCFLANQWQVSKPKDNPLNEGTDAARAAIAFSFFSIFTWAGQAVLAFQRYQIGADSALFSQDYMDPSQDSSMPYAPYVEPSAGSDPAGMGGTYQHPANAFDAEPQGYQSQGY
B4: PPP2R2C (protein, UniProt Q8BG02 1-447)
chain: MGEDTDTRKINHSFLRDHSYVTEADVISTVEFNHTGELLATGDKGGRVVIFQREPESKNAPHSQGEYDVYSTFQSHEPEFDYLKSLEIEEKINKIKWLPQQNAAHSLLSTNDKTIKLWKITERDKRPEGYNLKDEEGKLKDLSTVTSLQVPVLKPMDLMVEVSPRRTFANGHTYHINSISVNSDCETYMSADDLRINLWHLAITDRSFNIVDIKPANMEDLTEVITASEFHPHHCNLFVYSSSKGSLRLCDMRAAALCDKHSKLFEEPEDPSNRSFFSEIISSVSDVKFSHSGRYMLTRDYLTVKVWDLNMEARPIETYQVHDYLRSKLCSLYESDCIFDKFECAWNGSDSVIMTGAYNNFFRMFDRNTKRDVTLEASRESSKPRAVLKPRRVCVGGKRRRDDISVDSLDFTKKILHTAWHPAENIIAIAATNNLYIFQDKVNSDMH

These molecules were tested against T1, reticulon 3 (RTN3) (mouse (endogenous in hippocampus of 3xTg-AD mice)) (assay: co-IP; hippocampal tissue of group-housed or socially isolated AD mice lysed in RIPA buffer; 1 mg protein with 2 ug RTN3 antibody at 4 C overnight, protein A + G agarose beads 4 h, washed with PBS; Western blot for the partners; normal rabbit IgG as negative control; also done on senktide-treated mice (Fig. S11A-J)).

binding	Molecule
binds	PPP2R5E (from UniProt Q61151 1-467)
binds	PPP2R5A (from UniProt Q6PD03 1-486)
binds	dynamin 1 like (DNM1L) (from UniProt Q8K1M6-6 1-712)
binds	B1
binds	B2
binds	B3
binds	B4
